Experimental data from patent US6555347 (University of California, dated 2003).
These are yes or no findings as the source states them, for the method shown. Some binding calls cover weakened binding; strength is not graded here.

Chains of the proteins cited; added tags and fusions are not shown. Residues count along the entry.
UniProt Q62667, residues 68-861: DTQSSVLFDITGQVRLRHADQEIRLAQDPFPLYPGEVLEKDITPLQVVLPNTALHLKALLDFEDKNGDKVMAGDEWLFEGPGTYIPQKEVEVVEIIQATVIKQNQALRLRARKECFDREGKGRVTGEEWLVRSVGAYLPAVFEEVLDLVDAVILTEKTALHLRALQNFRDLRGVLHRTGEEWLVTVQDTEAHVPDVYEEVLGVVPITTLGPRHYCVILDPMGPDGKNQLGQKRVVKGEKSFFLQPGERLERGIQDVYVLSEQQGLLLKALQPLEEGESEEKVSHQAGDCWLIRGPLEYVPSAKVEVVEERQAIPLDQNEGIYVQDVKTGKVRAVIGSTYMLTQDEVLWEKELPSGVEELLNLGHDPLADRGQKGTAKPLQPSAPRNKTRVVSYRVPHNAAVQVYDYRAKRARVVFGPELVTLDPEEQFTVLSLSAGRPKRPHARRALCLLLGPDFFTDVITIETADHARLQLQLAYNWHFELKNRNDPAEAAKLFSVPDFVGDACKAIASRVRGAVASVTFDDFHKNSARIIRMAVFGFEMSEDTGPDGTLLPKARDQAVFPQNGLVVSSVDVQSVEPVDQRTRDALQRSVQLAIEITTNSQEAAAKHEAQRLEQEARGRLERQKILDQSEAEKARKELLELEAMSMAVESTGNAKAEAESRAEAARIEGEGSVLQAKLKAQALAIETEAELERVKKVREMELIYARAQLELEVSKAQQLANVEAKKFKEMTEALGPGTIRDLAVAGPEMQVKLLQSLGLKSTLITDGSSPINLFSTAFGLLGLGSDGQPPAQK

Target: rat major vault protein having the 67 amino acids at the amino-terminal truncated (rat) (UniProt Q62667)
Test: yeast two-hybrid (interaction trap), blue colonies on galactose/X-gal media

B1: human minor vault protein p193 (other)
chain: VCTQHWQDAVPWTELLSLQTEDGFWKLTPELGLILNLNTNGLHSFLKQKGIQSLGVKGRECLLDLIATMLVLQFIRTRLEKEGIVFKSLMKMDDPSISRNIPWAFEAIKQASEWVRRTEGQYPSICPRLELGNDWDSATKQLLGLQPISTVSPLHRVLHYSQG
notes: In the two-hybrid screen, p193 was a clone from a HeLa acid fusion cDNA library; In the western blots, immunofluorescence and immunoprecipitation, the form of p193 is not described; also called 193 kDa minor vault protein; human vault protein p193
B1 was tested, and the binding was “binds”.
